Test results published in the supplement of paper PMC12889115.
Some of the results follow. These are raw signals, not scaled to a control.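 First-pass screen: polymyxin B was added at a level that permeabilizes the Salmonella outer membrane while sparing the inner membrane. DMSO wells, with and without polymyxin B, defined maximum growth. Because plates differed from one another, each plate's data were ranked separately and the compounds with the lowest OD600 were carried forward as hits.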

System: Salmonella enterica serovar Typhimurium SL1344
Assay: bacterial growth OD600 after 18 h with compound and polymyxin B; higher = more bacterial growth (less inhibition)
Conditions: 50 µM, Mueller-Hinton broth

COc1ccc(CC2=NOC(CNC(=O)COc3ccc(C)cc3)C2)cc1 (stereo unspecified)
bacterial growth OD600 (polymyxin B 0.75 µg/mL): 0.81

COCc1ccc(C(=O)NCc2c(C)ncc3c2CCN(C(=O)/C=C/c2ccc(Cl)cc2)C3)o1
bacterial growth OD600 (polymyxin B 0.75 µg/mL): 0.752

COCCN1C(=O)CC(CC(=O)N2CCN(c3cccc(C)n3)CC2)(c2ccccc2Cl)C1=O (stereo unspecified)
bacterial growth OD600 (polymyxin B 0.75 µg/mL): 0.855

Cc1ccc(OCC(=O)N2CCC(C(Cc3ccccc3)N(C)C(=O)c3ccoc3C)CC2)cc1 (stereo unspecified)
bacterial growth OD600 (polymyxin B 0.75 µg/mL): 0.002

Cc1oc(-c2ccccc2NS(C)(=O)=O)nc1CN(C)Cc1cc(CN2CCCCC2)cs1
bacterial growth OD600 (polymyxin B 0.75 µg/mL): 0.734

O=C1O[C@@H]2CN(C3CCCC3)C[C@@H]2N1CCc1cccc(Cl)c1
bacterial growth OD600 (polymyxin B 1 µg/mL): 0.821

COCC(=O)N(C)C(Cc1ccc(F)cc1)C1CCN(C(=O)c2ccc(-c3ccccc3)cc2)CC1 (stereo unspecified)
bacterial growth OD600 (polymyxin B 0.75 µg/mL): 0.71

COCCN1C(=O)CC(CC(=O)N2CCCC(C(=O)Cc3ccccc3)C2)(c2ccccc2C)C1=O (stereo unspecified)
bacterial growth OD600 (polymyxin B 0.75 µg/mL): 0.45

O=C(Nc1ccccc1)NC1CC(=O)N(Cc2cccc(F)c2)C1 (stereo unspecified)
bacterial growth OD600 (polymyxin B 1 µg/mL): 0.883

C/C=C(\C)C(=O)NCC1Cc2cc(C)cc(-c3cc(C(C)=O)ccc3F)c2O1 (stereo unspecified)
bacterial growth OD600 (polymyxin B 0.75 µg/mL): 0.529

CC(C)(C)C(=O)N1CCC(C2CCN(Cc3cccc(F)c3F)CC2)C1 (stereo unspecified)
bacterial growth OD600 (polymyxin B 0.75 µg/mL): 0.821

CCN1CCN(c2ccc(-c3nc(Cc4ccc(OC)cc4)no3)cn2)CC1
bacterial growth OD600 (polymyxin B 1 µg/mL): 0.788

COc1ccc(C(=O)Nc2ccnn2C2CCN(Cc3ccc(C)s3)CC2)cc1
bacterial growth OD600 (polymyxin B 0.75 µg/mL): 0.761

Fc1cccc(CN2CCC(C3CCN(Cc4ccncc4)C3)CC2)c1F (stereo unspecified)
bacterial growth OD600 (polymyxin B 0.75 µg/mL): 0.765

CN(Cc1ccon1)CC1(O)CCCN(Cc2ccc(F)c(F)c2)C1=O (stereo unspecified)
bacterial growth OD600 (polymyxin B 1 µg/mL): 0.885

COc1ccc(CN2C[C@H]3OC(=O)N(Cc4ccc(OC)c(OC)c4)[C@H]3C2)cc1
bacterial growth OD600 (polymyxin B 0.75 µg/mL): 0.744

Cc1c(C(C)NCc2cccn2-c2nccs2)cnn1-c1cccc(F)c1 (stereo unspecified)
bacterial growth OD600 (polymyxin B 0.75 µg/mL): 0.752

Cc1ccccc1N1C(=O)CN(C(=O)c2cc3ncccn3n2)CC1C (stereo unspecified)
bacterial growth OD600 (polymyxin B 0.75 µg/mL): 0.689

CC(C)n1cc(C(=O)NCc2cccnc2N(C)C)cn1
bacterial growth OD600 (polymyxin B 1 µg/mL): 0.795

CC(C)N(CCO)Cc1cn(-c2ccc(F)cc2)nc1-c1ccccc1Cl
bacterial growth OD600 (polymyxin B 1 µg/mL): 0.819

COCCOC1CCN(C(=O)c2cn(CCC3CCCCC3)nn2)CC1
bacterial growth OD600 (polymyxin B 1 µg/mL): 0.926

Cc1ccc2c(c1)CN(CC(=O)NC(C)c1c(C)nn(C)c1C)CC(c1ccsc1)O2 (stereo unspecified)
bacterial growth OD600 (polymyxin B 0.75 µg/mL): 0.656

CCn1ccnc1CNC(=O)c1cc(Cn2ccc3ccccc32)[nH]n1
bacterial growth OD600 (polymyxin B 1 µg/mL): 0.892

CN1CCN(c2ncccc2CNC(=O)C(c2ccccc2)C2CCCC2)CC1 (stereo unspecified)
bacterial growth OD600 (polymyxin B 0.75 µg/mL): 0.916

COC(=O)CCC(=O)N1CCC2(CCCN(Cc3ccc(F)c(F)c3)C2=O)C1 (stereo unspecified)
bacterial growth OD600 (polymyxin B 1 µg/mL): 0.99

COCCN(Cc1cnc(SC)nc1)CC1CCCN(C2Cc3ccccc3C2)C1 (stereo unspecified)
bacterial growth OD600 (polymyxin B 0.75 µg/mL): 0.805

COc1cc2nc(-c3cc4c(c(OC)c3)OCCN(C(=O)Cc3ccccc3)C4)cc(C)c2cc1OC
bacterial growth OD600 (polymyxin B 0.75 µg/mL): 0.808

CCN1CCN(C2(C(=O)N[C@@H]3C[C@H]3c3ccccc3)Cc3ccccc3C2)CC1
bacterial growth OD600 (polymyxin B 0.75 µg/mL): 0.702

COc1ccc(F)c(CN2CCCC(O)(CNC3CCC3)C2=O)c1 (stereo unspecified)
bacterial growth OD600 (polymyxin B 0.75 µg/mL): 0.9

CCC1(C2CCN(Cc3cccc(OC)c3O)CC2)NC(=O)N(CCc2scnc2C)C1=O (stereo unspecified)
bacterial growth OD600 (polymyxin B 0.75 µg/mL): 0.998

O=C(CC(F)(F)F)N1CCc2onc(-c3ccc(F)c(F)c3)c2C1
bacterial growth OD600 (polymyxin B 0.75 µg/mL): 0.817
